From paper PMC8743267
No constants are given. Whether binding was seen depends on the method and setting. In cells and extracts the contact can be indirect. Some results given as binding are weak or reduced against the parent protein; the word gives no strength. For some assays here: Tags and fused reporters may be left off the sequences shown. Values belong to the molecule of their own block, whether it stands above or below them.

Amino acid sequences for entries named in this document (tags omitted). Residues count along the entry.
UniProt P05362, residues 28-532: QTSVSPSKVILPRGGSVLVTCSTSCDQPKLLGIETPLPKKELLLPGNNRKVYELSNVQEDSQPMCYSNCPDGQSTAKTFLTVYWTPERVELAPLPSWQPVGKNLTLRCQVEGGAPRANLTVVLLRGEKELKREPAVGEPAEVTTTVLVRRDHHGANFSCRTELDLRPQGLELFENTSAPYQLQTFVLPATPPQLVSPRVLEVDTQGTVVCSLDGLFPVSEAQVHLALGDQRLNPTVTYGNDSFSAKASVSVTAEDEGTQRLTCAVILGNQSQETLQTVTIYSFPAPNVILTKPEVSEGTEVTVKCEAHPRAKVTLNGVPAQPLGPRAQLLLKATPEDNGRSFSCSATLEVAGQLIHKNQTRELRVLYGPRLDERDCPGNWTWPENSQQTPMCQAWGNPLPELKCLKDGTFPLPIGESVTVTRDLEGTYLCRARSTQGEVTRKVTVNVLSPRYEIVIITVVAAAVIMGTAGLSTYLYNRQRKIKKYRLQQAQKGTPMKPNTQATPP

Columns and labels:
PLLP-GFP (human) = target: T1, PLLP-GFP (human) (UniProt Q9Y342); test: co-IP; lysates of HepG2 cells stably expressing PLLP-GFP (TNE buffer: 50 mM Tris pH 7.4, 150 mM NaCl, 5 mM EDTA, with 1% Triton-X100), anti-GFP antibody on protein A-Sepharose, 3 h at 4 °C; rabbit IgG as control; western blot
T1 sequence: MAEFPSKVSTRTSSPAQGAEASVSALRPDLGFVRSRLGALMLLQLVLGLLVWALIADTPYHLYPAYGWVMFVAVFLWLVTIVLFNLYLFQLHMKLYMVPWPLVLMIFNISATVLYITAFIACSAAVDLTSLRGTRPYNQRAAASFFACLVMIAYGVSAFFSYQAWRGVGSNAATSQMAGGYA

[1] = target: Intercellular adhesion molecule (ICAM)-1 (human (endogenous in HepG2)) (UniProt P05362); test: co-IP; endogenous basolateral ICAM-1 labeled on HepG2 cells with anti-ICAM-1 antibody at 4 °C, cells incubated at 37 °C for the indicated times, lysed in TNE + TX100, post-nuclear supernatant incubated with protein G-Sepharose 3 h at 4 °C; ICAM-1_KO cells as control; western blot

binding (PLLP-GFP (human)): binds
Molecule: Intercellular adhesion molecule (ICAM)-1 (from UniProt P05362 28-532) (receptor)

binding [1]: binds
B1: plasmolipin (PLLP) (protein, UniProt Q9Y342 1-182)
chain: T1 sequence
